# Screening data, single-dose tests

Protein sequences, listed by entry. Tags and fused reporters are not part of them.
UniProt I6X8D2, whole entry: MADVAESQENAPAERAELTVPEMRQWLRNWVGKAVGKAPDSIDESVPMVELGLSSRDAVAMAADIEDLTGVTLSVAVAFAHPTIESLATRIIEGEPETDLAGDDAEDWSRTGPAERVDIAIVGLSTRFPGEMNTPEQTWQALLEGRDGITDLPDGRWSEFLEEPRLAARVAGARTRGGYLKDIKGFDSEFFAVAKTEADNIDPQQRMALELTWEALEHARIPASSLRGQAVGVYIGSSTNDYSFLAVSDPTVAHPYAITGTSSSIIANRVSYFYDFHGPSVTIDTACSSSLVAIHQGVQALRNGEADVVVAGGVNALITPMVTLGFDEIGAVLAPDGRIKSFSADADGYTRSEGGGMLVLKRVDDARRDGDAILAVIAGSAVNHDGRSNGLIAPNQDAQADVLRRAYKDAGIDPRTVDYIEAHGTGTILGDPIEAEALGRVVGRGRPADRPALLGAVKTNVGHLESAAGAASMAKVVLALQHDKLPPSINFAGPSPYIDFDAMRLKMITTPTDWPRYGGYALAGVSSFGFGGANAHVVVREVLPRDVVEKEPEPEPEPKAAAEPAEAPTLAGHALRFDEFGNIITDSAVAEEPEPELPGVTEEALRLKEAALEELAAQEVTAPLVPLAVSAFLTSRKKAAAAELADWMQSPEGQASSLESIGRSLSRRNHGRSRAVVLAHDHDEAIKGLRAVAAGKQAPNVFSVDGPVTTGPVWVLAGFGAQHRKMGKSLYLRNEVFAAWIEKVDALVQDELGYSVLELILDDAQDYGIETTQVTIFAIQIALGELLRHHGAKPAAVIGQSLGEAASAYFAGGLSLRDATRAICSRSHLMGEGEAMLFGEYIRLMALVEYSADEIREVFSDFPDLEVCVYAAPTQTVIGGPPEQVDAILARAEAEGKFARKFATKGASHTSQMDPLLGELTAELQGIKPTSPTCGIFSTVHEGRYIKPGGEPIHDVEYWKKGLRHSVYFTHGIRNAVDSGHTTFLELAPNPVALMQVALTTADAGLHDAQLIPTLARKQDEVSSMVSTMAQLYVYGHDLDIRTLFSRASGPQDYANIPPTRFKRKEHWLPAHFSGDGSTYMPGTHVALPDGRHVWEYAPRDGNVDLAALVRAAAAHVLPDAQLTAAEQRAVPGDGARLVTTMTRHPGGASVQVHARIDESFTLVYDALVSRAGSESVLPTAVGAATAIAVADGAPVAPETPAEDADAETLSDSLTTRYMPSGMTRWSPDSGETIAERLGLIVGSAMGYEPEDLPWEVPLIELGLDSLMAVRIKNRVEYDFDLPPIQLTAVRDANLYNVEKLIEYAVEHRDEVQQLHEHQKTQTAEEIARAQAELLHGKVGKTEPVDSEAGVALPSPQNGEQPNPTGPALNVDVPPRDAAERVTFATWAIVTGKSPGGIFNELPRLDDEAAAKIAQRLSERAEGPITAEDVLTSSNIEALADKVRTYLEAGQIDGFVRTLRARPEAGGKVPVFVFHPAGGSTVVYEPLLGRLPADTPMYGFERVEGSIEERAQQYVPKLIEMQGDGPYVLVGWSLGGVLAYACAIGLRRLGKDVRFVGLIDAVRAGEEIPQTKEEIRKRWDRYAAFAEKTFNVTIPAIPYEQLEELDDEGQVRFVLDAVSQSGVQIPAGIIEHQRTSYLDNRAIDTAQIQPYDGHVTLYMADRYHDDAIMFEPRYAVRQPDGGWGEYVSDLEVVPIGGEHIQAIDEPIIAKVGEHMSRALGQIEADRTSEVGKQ
UniProt P9WPC5, whole entry: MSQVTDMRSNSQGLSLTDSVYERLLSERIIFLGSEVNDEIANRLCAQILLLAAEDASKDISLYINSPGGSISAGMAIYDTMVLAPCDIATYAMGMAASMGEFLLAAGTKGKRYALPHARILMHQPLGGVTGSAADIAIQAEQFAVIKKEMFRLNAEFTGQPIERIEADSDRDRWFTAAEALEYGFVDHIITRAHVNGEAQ
UniProt P9WPC3, whole entry partner: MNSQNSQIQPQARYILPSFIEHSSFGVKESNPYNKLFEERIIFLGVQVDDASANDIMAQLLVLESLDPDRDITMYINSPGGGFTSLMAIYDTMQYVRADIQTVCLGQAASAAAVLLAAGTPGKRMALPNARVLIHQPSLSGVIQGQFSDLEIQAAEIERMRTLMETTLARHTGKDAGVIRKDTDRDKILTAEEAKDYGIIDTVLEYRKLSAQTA

Leishmania in macrophages: 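Cell assay of Leishmania donovani living inside macrophages; the read-out is not stated. Compounds at 30 µM. The record gives no direction; compounds that gave an IC50 in retests scored well above the rest, so higher reads as stronger inhibition. About 69,000 compounds were tested under these conditions; 1.5% (about 1,000) showed 50% or more at least once.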
Pks13 thioesterase: 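Polyketide synthase Pks13, Mycobacterium tuberculosis (UniProt I6X8D2). Enzyme assay of the thioesterase domain of polyketide synthase 13; the read-out is not stated. Tested at 30 µM. Higher reads as stronger inhibition (inferred from which compounds were picked for retests). Size under these conditions: about 67,000 compounds, about 300 of them at 50% or above in at least one test.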
ClpP1P2: 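Protease assay of ClpP1P2, read by the AMC dye that it sets free. Target: ClpP1P2, Mycobacterium tuberculosis (UniProt P9WPC5 and UniProt P9WPC3). Concentration: 50 µM. Higher reads as stronger inhibition, judged from the few compounds that gave an IC50. Most other retested compounds had strongly negative values. About 69,000 compounds were tested under these conditions; 0.015% (about 10) showed 50% or more at least once.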
T. brucei: 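Whole-parasite assay of Trypanosoma brucei over 72 hours; the read-out is not stated. Concentration: 30 µM. Higher reads as stronger inhibition (inferred: compounds with an IC50 in retests scored well above the rest). Values scatter widely below zero; nearly all retest evidence comes from the higher of the two concentrations used. Of about 64,000 compounds tested this way, about 940 (1.5%) reached 50% or more in at least one test.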

Results are given as percent effect. How 0% and 100% were set is not recorded. Most values in the screen are low, and negative values occur. Compounds were drawn at random from those tested, without regard to their results. Two or more numbers in one place are separate tests of the same structure; such repeats can differ widely.

With CC(C)Cc1noc(CN2CCOCC2)n1 the screen gave Leishmania in macrophages: -0.4848%; Pks13 thioesterase: -4.063%; ClpP1P2: 21.93%; T. brucei: 0.7349%.
With COCCC(=O)N1CCc2nc(N3CCOCC3)nc(NC(C)C)c2C1 the screen gave Leishmania in macrophages: -4.091%; Pks13 thioesterase: -10.12%; ClpP1P2: 8.997%; T. brucei: -26.7%.
With O=C1CN(Cc2cnc3c(-c4ccccc4)cnn3c2)CCCN1 the screen gave Leishmania in macrophages: 24.78%; Pks13 thioesterase: -33.85%; ClpP1P2: -13.2%; T. brucei: -86.31%.
With CCN(c1ccc(C(=O)NCCCN2CCCCC2)cc1)S(=O)(=O)CC the screen gave Leishmania in macrophages: 29.42%; Pks13 thioesterase: -7.222%; ClpP1P2: -7.372%; T. brucei: -22.12%.
With O=C(CSCC1CC1)N1C[C@@H]2CC[C@H](C1)N(Cc1ccccn1)C2=O the screen gave Pks13 thioesterase: -35.03%; ClpP1P2: -1.496%.
With O=C(NC(CO)CO)c1coc(COc2cccc(F)c2)n1 the screen gave Leishmania in macrophages: -9.253%; Pks13 thioesterase: -10.92%; ClpP1P2: 4.256%; T. brucei: -13.47%.
With O=C(c1ncoc1C1CCCO1)N1CC2(CCCC2)c2ccccc21 (stereo not drawn) the screen gave Leishmania in macrophages: -4.845%; Pks13 thioesterase: -39.71%; ClpP1P2: -2.266%; T. brucei: -23.86%.
With Cc1ccc(C(CNCc2c[nH]nc2C)N(C)C)cc1.Cl (stereo not drawn) the screen gave Leishmania in macrophages: -15.02%; T. brucei: -11.32%.
With CC1CCCN(S(=O)(=O)N2CCOC3(CCCC3)C2)C1 (stereo not drawn) the screen gave Leishmania in macrophages: 1.64%; Pks13 thioesterase: -11.58%; ClpP1P2: 4.435%; T. brucei: -5.45%.
With Cc1ccsc1CN(C)c1cc(N2CCOCC2)ncn1 the screen gave Leishmania in macrophages: 12.1%; Pks13 thioesterase: 3.824%; ClpP1P2: 6.315%; T. brucei: -7.58%.
With O=C(c1ncoc1-c1ccco1)N1CCCN(c2nccs2)CC1 the screen gave Leishmania in macrophages: 12.56%; Pks13 thioesterase: -0.191%; ClpP1P2: 1.62%; T. brucei: 2.335%.
With CCOCC1CN(C(=O)c2ccoc2)Cc2cnn(C)c21 (stereo not drawn) the screen gave Leishmania in macrophages: -2.506%; Pks13 thioesterase: -34.02%; ClpP1P2: 12.23%; T. brucei: -39.6%.
With O=C(O)C(F)(F)F.[H][C@@]12CCCO[C@]1([H])[C@H](NC(=O)CC1CC1)CN(Cc1ccco1)C2 the screen gave Leishmania in macrophages: 8.846%; T. brucei: -12.17%.
With O=C(CCc1nc2ccccc2[nH]1)NC1CCOC2(CCOCC2)C1 (stereo not drawn) the screen gave Leishmania in macrophages: -4.995%; Pks13 thioesterase: -25.61%; ClpP1P2: 6.422%; T. brucei: -25.55%.
With Cc1cnc(C)c(N2CCCC(CO)(Cc3ccccc3C)C2)n1 (stereo not drawn) the screen gave Leishmania in macrophages: 58.45%; Pks13 thioesterase: -7.346%; ClpP1P2: 7.709%; T. brucei: -30.5%.
With COc1cccc(F)c1C(C)NC(=O)NCc1cc(C(C)C)no1 (stereo not drawn) the screen gave Leishmania in macrophages: 18%; Pks13 thioesterase: -10.61%; ClpP1P2: -11.35%; T. brucei: -8.095%.
With O=C(O)C(F)(F)F.[H][C@@]12OCCN(S(=O)(=O)CC)[C@@]1([H])CC[C@H]2OCCCn1cccn1 the screen gave Leishmania in macrophages: 0.2285%; T. brucei: -17.44%.
With O=C(C1CCCC1)N1CCCC([C@@H]2C[C@H](C(F)F)n3ncnc3N2)C1 (stereo partly drawn) the screen gave Leishmania in macrophages: 19.74%; Pks13 thioesterase: -8.598%; ClpP1P2: 6.226%; T. brucei: 4.564%.
With Cc1cccc(C(C(=O)NCCn2cccc2)N(C)C)c1 (stereo not drawn) the screen gave Leishmania in macrophages: 37.85%; Pks13 thioesterase: -6.319%; ClpP1P2: -3.182%; T. brucei: -9.51%.
With CCN(CC)S(=O)(=O)N1CCCC(c2ncc3c(n2)CCN(C)C3)C1 (stereo not drawn) the screen gave Leishmania in macrophages: -7.869%; Pks13 thioesterase: -1.004%; ClpP1P2: 6.714%; T. brucei: -11.33%.
With [H][C@]12C[C@H](NC(=O)c3ccccn3)[C@@]1([H])CN(S(=O)(=O)c1ccc(C)cc1)C2 the screen gave Leishmania in macrophages: -9.702%; T. brucei: -10.97%.
With O=C(c1ccccc1)N1CC[C@H]2C[C@@H](c3nnc(C4CC4)o3)O[C@@H]2C1 the screen gave Pks13 thioesterase: -41.08%; ClpP1P2: 12.6%.
With [H][C@@]12CCN(C(=O)c3cnc(C)cn3)C[C@@]1([H])O[C@H](c1nc(C)cs1)C2 the screen gave Leishmania in macrophages: 8.631% & -12.85%; T. brucei: -47.89%.
With CC(C)CNC(=O)c1nnsc1-c1ccccc1 the screen gave Leishmania in macrophages: -2.659%; Pks13 thioesterase: -12.72%; ClpP1P2: -21.63%; T. brucei: -8.546%.
With NC(=O)c1ccc(N2CCN(CCCc3cn[nH]c3)CC2)cc1 the screen gave Leishmania in macrophages: 20.48%; Pks13 thioesterase: -13.6%; ClpP1P2: -3.226%; T. brucei: 13.14%.
With CC(C)c1ncncc1C(=O)N1CCN(Cc2ccccn2)CC1 the screen gave Leishmania in macrophages: 24.52%; Pks13 thioesterase: -12.21%; ClpP1P2: -34.15%; T. brucei: -7.963%.
With CN(C)c1cccc(C2CCN(C3COCC3O)CC2)n1 (stereo not drawn) the screen gave Leishmania in macrophages: 43.72%; Pks13 thioesterase: 10.46%; ClpP1P2: -13.91%.
With Cc1ccc(N2CCC3(CCN(Cc4nccs4)CC3)CC2)nn1 the screen gave Leishmania in macrophages: 4.839%; Pks13 thioesterase: -33.87%; ClpP1P2: -2.512%; T. brucei: -11.43%.
With Cc1nn(C)c(C)c1C1COCCN1C(=O)c1ccccc1 (stereo not drawn) the screen gave Leishmania in macrophages: 13%; ClpP1P2: 0.006523%; T. brucei: -0.2101%.
With Cc1ccc(C(=O)N2CC(c3cccnc3)C2)cc1N1CCNC1=O the screen gave Leishmania in macrophages: 24.47%; Pks13 thioesterase: -21.48%; ClpP1P2: 3.419%; T. brucei: -9.635%.
With Cc1nc[nH]c1-c1nnc(SCC(=O)O)n1-c1ccccc1C(F)(F)F the screen gave Leishmania in macrophages: 17.82%; Pks13 thioesterase: -5.354%; ClpP1P2: -13.1%; T. brucei: -10.27%.
With [H][C@]12CC[C@]([H])(CN(c3nccc(N)n3)C1)N(CC1CCC1)C2=O the screen gave Leishmania in macrophages: 12.87%; T. brucei: -6.843%.

The values are deposited in ChEMBL (CHEMBL3988442, “University of Dundee, Small-Polar-MMV Screening Library” (2021)).